Results are given in words; binding and its absence hold for the method and conditions named. Binding seen in cells or lysates may run through a third protein. Some entries that bind do so weakly or less than the wild type. Tags and fused reporters may be left off the sequences shown.
Molecular target: GST-tagged Nedd4-1, full length (UniProt P46935)
Test: pull-down

Amino acid sequences for entries named in this document (tags omitted).
UniProt P46935: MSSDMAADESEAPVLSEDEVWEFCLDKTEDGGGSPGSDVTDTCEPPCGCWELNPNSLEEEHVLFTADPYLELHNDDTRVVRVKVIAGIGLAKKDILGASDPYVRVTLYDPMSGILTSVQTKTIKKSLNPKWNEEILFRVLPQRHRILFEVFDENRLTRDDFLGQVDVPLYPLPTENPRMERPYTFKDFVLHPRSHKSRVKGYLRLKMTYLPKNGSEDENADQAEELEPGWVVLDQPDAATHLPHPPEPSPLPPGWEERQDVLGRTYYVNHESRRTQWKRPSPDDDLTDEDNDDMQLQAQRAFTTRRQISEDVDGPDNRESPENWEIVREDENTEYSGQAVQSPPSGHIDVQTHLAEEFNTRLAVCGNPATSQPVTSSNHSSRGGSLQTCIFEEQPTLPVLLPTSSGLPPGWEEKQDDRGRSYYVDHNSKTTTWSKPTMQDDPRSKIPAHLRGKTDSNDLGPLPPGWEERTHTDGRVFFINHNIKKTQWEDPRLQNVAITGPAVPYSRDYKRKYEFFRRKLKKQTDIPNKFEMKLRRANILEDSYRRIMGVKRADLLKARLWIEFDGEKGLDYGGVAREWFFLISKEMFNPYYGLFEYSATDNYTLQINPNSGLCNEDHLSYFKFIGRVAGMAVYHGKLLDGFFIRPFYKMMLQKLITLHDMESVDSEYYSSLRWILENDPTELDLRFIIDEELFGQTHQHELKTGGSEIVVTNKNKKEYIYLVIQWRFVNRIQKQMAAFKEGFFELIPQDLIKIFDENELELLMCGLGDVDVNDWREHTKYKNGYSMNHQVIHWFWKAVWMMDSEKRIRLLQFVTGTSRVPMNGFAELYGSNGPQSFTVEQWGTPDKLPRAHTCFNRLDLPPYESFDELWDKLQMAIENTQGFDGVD
UniProt P23242: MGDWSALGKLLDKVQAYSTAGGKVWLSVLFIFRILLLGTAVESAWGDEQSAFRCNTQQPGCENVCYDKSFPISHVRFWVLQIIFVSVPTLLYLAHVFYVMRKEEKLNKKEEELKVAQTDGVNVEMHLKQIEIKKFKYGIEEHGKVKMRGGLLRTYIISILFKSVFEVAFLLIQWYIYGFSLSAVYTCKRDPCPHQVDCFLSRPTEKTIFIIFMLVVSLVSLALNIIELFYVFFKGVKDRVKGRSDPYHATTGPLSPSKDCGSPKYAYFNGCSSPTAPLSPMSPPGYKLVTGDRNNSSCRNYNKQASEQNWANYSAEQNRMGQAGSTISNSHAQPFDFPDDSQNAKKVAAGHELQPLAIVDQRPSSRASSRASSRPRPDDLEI

HA-tagged Connexin43 (gap junction alpha 1 protein) (from UniProt P23242 1-382)
binding: binds

B1: HA-tagged Kir4.1 (inwardly rectifying K+ channel 4.1) (protein, UniProt Q9JM63 1-379)
chain: MTSVAKVYYSQTTQTESRPLVAPGIRRRRVLTKDGRSNVRMEHIADKRFLYLKDLWTTFIDMQWRYKLLLFSATFAGTWFLFGVVWYLVAVAHGDLLELGPPANHTPCVVQVHTLTGAFLFSLESQTTIGYGFRYISEECPLAIVLLIAQLVLTTILEIFITGTFLAKIARPKKRAETIRFSQHAVVASHNGKPCLMIRVANMRKSLLIGCQVTGKLLQTHQTKEGENIRLNQVNVTFQVDTASDSPFLILPLTFYHVVDETSPLKDLPLRSGEGDFELVLILSGTVESTSATCQVRTSYLPEEILWGYEFTPAISLSASGKYIADFSLFDQVVKVASPSGLRDSTVRYGDPEKLKLEESLREQAEKEGSALSVRISNV
binding: binds

Reference: paper doi:10.1101/683441
